Counter-ions that a name gives are not always drawn.

As for `CN(CCc1ccc(Nc2ncc3c(n2)-c2ccccc2[C@H](c2ccc(Cl)cc2)C3)cc1)C1CCCCC1` (as salt: hydrochloride), the melting point (as a rule, the temperature of the solid-liquid transition) lay within 159 to 162 °C.

As to `CN(CCc1ccc(Nc2ncc3c(n2)-c2ccccc2C(c2ccc(Cl)cc2)C3)cc1)C1CCCCC1` (centres unmarked) (as salt: hydrochloride), the melting point was in the range of 157 to 163 °C.
